The record followed here is PubChem BioAssay AID256 (DTP/NCI, 2004).

The list does not hold the whole screen: it is rich in T/C values a quarter to a half above the control, in often repeated tests (any T/C) and in doses without a T/C. Other doses and runs of a compound stand elsewhere. T/C is the treated group as % of the vehicle group. Some entries give survivors of the animals treated and no T/C: the source holds a T/C of zero for them, seemingly a mark for toxic or unscored doses. Some survivor counts are full or nearly so, which does not show that the dose was tolerated: survival well below the control is almost never listed, so the zero probably covers shortened survival too. Counts of survivors are from the toxicity check (mostly the fifth day) where no day follows; animals may have died later. Schedule codes are those of the source, read here as Q, the interval in days (D) or hours (H), X, the number of doses. Some entries were tested several times; the results are listed from low to high. Additions like (4×) stand for listed records that agree. Where survival is the endpoint, this PubChem deposit counts one and a half times the control or more as active, and values a quarter to a half above the control carry no call in these data; other NCI protocols may use other cut-offs. Some T/C values carry the count of animals alive at the toxicity check (mostly the fifth day); without a count, all were alive then.

The test relates to CD2F1 mice, L1210 leukemia ip, survival T/C. The test is described as follows: NCI In Vivo Anticancer Drug Screen. Data for tumor model L1210 Leukemia (intraperitoneal) in CD2F1 (CDF1) mice. As to conditions: higher T/C = longer survival. The method, boiled down: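 Transplantable tumor in mice; compound-treated vs vehicle-treated groups. Read-out = treated/control ratio of the measured endpoint.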

[1] abbreviates: T/C endpoint: mean survival time, dose: 100.0 mg/kg/injection, schedule: Q01DX001 (ip), vehicle: Klucel (hydroxypropylcellulose) (HPC).
[2] abbreviates: T/C endpoint: mean survival time, dose: 100.0 mg/kg/injection, schedule: Q04DX003 (ip), vehicle: saline with Tween-80.
Setting [3] is: T/C endpoint: mean survival time, dose: 400.0 mg/kg/injection, schedule: Q04DX003 (ip), vehicle: saline with Tween-80.
The mark [4] stands for this setting: T/C endpoint: mean survival time, dose: 400.0 mg/kg/injection, schedule: Q01DX009 (ip), vehicle: saline with Tween-80.

Take `CCOC(=O)Nc1cc2c(c(N)n1)N=C(CN(C)c1ccc(OC)cc1)CN2`: the T/C was 127 % of control (T/C endpoint: mean survival time, dose: 1.56 mg/kg/injection, schedule: Q01DX009 (ip), vehicle: Klucel (hydroxypropylcellulose) (HPC)); 136 and 137 % of control (T/C endpoint: mean survival time, dose: 3.13 mg/kg/injection, schedule: Q01DX009 (ip), vehicle: Klucel (hydroxypropylcellulose) (HPC)); 130 % of control (T/C endpoint: mean survival time, dose: 6.25 mg/kg/injection, schedule: Q01DX009 (ip), vehicle: Klucel (hydroxypropylcellulose) (HPC)); 129 % of control (T/C endpoint: mean survival time, dose: 25.0 mg/kg/injection, schedule: Q01DX001 (ip), vehicle: Klucel (hydroxypropylcellulose) (HPC)); 135 % of control [5 of 6 alive] (T/C endpoint: mean survival time, dose: 50.0 mg/kg/injection, schedule: Q01DX001 (ip), vehicle: Klucel (hydroxypropylcellulose) (HPC)); 146 % of control under setting [1]. In addition, the survivor count runs as follows: (T/C endpoint: mean survival time, dose: 12.5 mg/kg/injection, schedule: Q01DX009 (ip), vehicle: Klucel (hydroxypropylcellulose) (HPC)) 4 of 4; (T/C endpoint: mean survival time, dose: 25.0 mg/kg/injection, schedule: Q01DX009 (ip), vehicle: Klucel (hydroxypropylcellulose) (HPC)) 3 of 4; under setting [1], 3 of 6; (T/C endpoint: mean survival time, dose: 200.0 mg/kg/injection, schedule: Q01DX001 (ip), vehicle: Klucel (hydroxypropylcellulose) (HPC)) 3 of 6; (T/C endpoint: mean survival time, dose: 400.0 mg/kg/injection, schedule: Q01DX001 (ip), vehicle: Klucel (hydroxypropylcellulose) (HPC)) 1 of 6.
`CN1CCc2c3n(c4ccccc24)C(=O)CCC31` (stereo not given): the survivor count is, setting by setting: (T/C endpoint: mean survival time, dose: 100.0 mg/kg/injection, schedule: Q04DX003 (ip), vehicle: saline sonified) 1 of 6; (T/C endpoint: mean survival time, dose: 200.0 mg/kg/injection, schedule: Q04DX003 (ip), vehicle: saline sonified) 0 of 6; (T/C endpoint: mean survival time, dose: 400.0 mg/kg/injection, schedule: Q04DX003 (ip), vehicle: saline sonified) 0 of 6.
Turning to `O=C(O)/C=C/S(=O)(=O)O`, the survivor count is, setting by setting: (T/C endpoint: mean survival time, dose: 150.0 mg/kg/injection, schedule: Q01DX001 (ip), vehicle: saline) 1 of 6; (T/C endpoint: mean survival time, dose: 300.0 mg/kg/injection, schedule: Q01DX001 (ip), vehicle: saline) 0 of 6.
With `CC(C)CC(N)C(=O)O` (stereo not given) (tested in a mixture with another compound), the survivor count is 1 of 3 (T/C endpoint: median survival time, dose: 3.13 mg/kg/injection, schedule: Q04DX002 (ip), vehicle: saline); 0 of 3 (T/C endpoint: median survival time, dose: 200.0 mg/kg/injection, schedule: Q04DX002 (ip), vehicle: saline); 0 of 3 (2×) (T/C endpoint: median survival time, dose: 400.0 mg/kg/injection, schedule: Q04DX002 (ip), vehicle: saline).
In the case of `CCN(CC)CCNc1ccc(C)c2sc3ccccc3c(=O)c12`, the T/C was 128 % of control (T/C endpoint: mean survival time, dose: 50.0 mg/kg/injection, schedule: Q01DX007 (ip), vehicle: saline); 136 % of control (T/C endpoint: mean survival time, dose: 50.0 mg/kg/injection, schedule: Q01DX009 (ip), vehicle: saline); 137 % of control (T/C endpoint: mean survival time, dose: 60.0 mg/kg/injection, schedule: Q01DX005 (ip), vehicle: water); 125 % of control (T/C endpoint: mean survival time, dose: 100.0 mg/kg/injection, schedule: Q03DX003 (ip), vehicle: saline); 132 % of control (T/C endpoint: mean survival time, dose: 100.0 mg/kg/injection, schedule: Q04DX003 (ip), vehicle: saline); 132 % of control (T/C endpoint: median survival time, dose: 25.0 mg/kg/injection, schedule: Q01DX009 (ip), vehicle: water). Besides, the T/C was 125 % of control (T/C endpoint: median survival time, dose: 50.0 mg/kg/injection, schedule: Q01DX009 (ip), vehicle: saline with Tween-80) and 137, 144, 146 % of control (T/C endpoint: median survival time, dose: 50.0 mg/kg/injection, schedule: Q01DX009 (ip), vehicle: saline). The survivor count by setting is: (T/C endpoint: median survival time, dose: 200.0 mg/kg/injection, schedule: Q01DX009 (ip), vehicle: saline) 5 of 6, 9 of 10, 6 of 6; (T/C endpoint: median survival time, dose: 400.0 mg/kg/injection, schedule: Q01DX009 (ip), vehicle: saline with Tween-80) 0 of 6; (T/C endpoint: median survival time, dose: 400.0 mg/kg/injection, schedule: Q01DX009 (ip), vehicle: saline) 5 of 10.
`O=C(NNc1ccccc1)c1ccccc1`: the survivor count (T/C endpoint: mean survival time, dose: 100.0 mg/kg/injection, schedule: Q01DX009 (ip), vehicle: Klucel (hydroxypropylcellulose) (HPC)) is given as 1 of 6; the survivor count (T/C endpoint: mean survival time, dose: 200.0 mg/kg/injection, schedule: Q01DX009 (ip), vehicle: Klucel (hydroxypropylcellulose) (HPC)) is listed as 0 of 6; the survivor count (T/C endpoint: mean survival time, dose: 400.0 mg/kg/injection, schedule: Q01DX009 (ip), vehicle: Klucel (hydroxypropylcellulose) (HPC)) was 0 of 6.
Regarding `CCCCNCCC(=O)c1ccc(Cl)cc1`, the survivor count by setting is: (T/C endpoint: mean survival time, dose: 100.0 mg/kg/injection, schedule: Q01DX009 (ip), vehicle: saline sonified) 1 of 6; under setting [2], 2 of 6; (T/C endpoint: mean survival time, dose: 200.0 mg/kg/injection, schedule: Q01DX009 (ip), vehicle: saline sonified) 0 of 6; (T/C endpoint: mean survival time, dose: 400.0 mg/kg/injection, schedule: Q01DX009 (ip), vehicle: saline sonified) 0 of 6.
For the molecule `CCOC(=O)c1ccc(OC(=O)Nc2ccc(Cl)cc2)cc1`, the survivor count under setting [3] was 6 of 6.
On to `Cc1ccc(NC(=O)N(CCCl)N=O)cc1Cl`, for which the T/C by setting is: (T/C endpoint: mean survival time, dose: 1.6 mg/kg/injection, schedule: Q01DX001 (ip), vehicle: carboxymethylcellulose (CMC)) 125 % of control; (T/C endpoint: mean survival time, dose: 2.5 mg/kg/injection, schedule: Q01DX001 (ip), vehicle: carboxymethylcellulose (CMC)) 125 % of control; (T/C endpoint: mean survival time, dose: 3.8 mg/kg/injection, schedule: Q01DX001 (ip), vehicle: carboxymethylcellulose (CMC)) 127 % of control; (T/C endpoint: mean survival time, dose: 5.7 mg/kg/injection, schedule: Q01DX001 (ip), vehicle: carboxymethylcellulose (CMC)) 128 % of control; (T/C endpoint: mean survival time, dose: 8.6 mg/kg/injection, schedule: Q01DX001 (ip), vehicle: carboxymethylcellulose (CMC)) 132 and 133 % of control; (T/C endpoint: mean survival time, dose: 13.0 mg/kg/injection, schedule: Q01DX001 (ip), vehicle: carboxymethylcellulose (CMC)) 128 % of control. For the same molecule, the T/C (T/C endpoint: mean survival time, dose: 20.0 mg/kg/injection, schedule: Q01DX001 (ip), vehicle: carboxymethylcellulose (CMC)) is 128 and 147 % of control.
Regarding `CCCCCCCCSC#N`, the survivor count is, setting by setting: (T/C endpoint: mean survival time, dose: 100.0 mg/kg/injection, schedule: Q01DX001 (ip), vehicle: carboxymethylcellulose (CMC)) 1 of 4; (T/C endpoint: mean survival time, dose: 200.0 mg/kg/injection, schedule: Q01DX001 (ip), vehicle: carboxymethylcellulose (CMC)) 0 of 4; (T/C endpoint: mean survival time, dose: 400.0 mg/kg/injection, schedule: Q01DX001 (ip), vehicle: carboxymethylcellulose (CMC)) 0 of 4.
For the molecule `Nc1cccc(CCCCc2ccc(Cl)c(S(=O)(=O)F)c2)c1`, under setting [4], the survivor count was 3 of 6.
For the molecule `CCCCCCC[CH2][Sn]([CH2]CCCCCCC)([NH]S(=O)(=O)c1ccc(C)cc1)[NH]S(=O)(=O)c1ccc(C)cc1`, for the setting “T/C endpoint: mean survival time, dose: 300.0 mg/kg/injection, schedule: Q01DX001 (ip), vehicle: other”, the survivor count was 0 of 6.
As for `O=C(N1CCOCC1)C1(c2ccccc2)CCNCC1`, the survivor count (T/C endpoint: mean survival time, dose: 200.0 mg/kg/injection, schedule: Q01DX009 (ip), vehicle: saline) is recorded as 0 of 6.
Turning to `COC(=O)C(F)C(Br)C(=O)OC` (stereo not given), the survivor count (T/C endpoint: mean survival time, dose: 100.0 mg/kg/injection, schedule: Q01DX009 (ip), vehicle: saline with Tween-80) was 2 of 6.
Take `CC(C)([NH-])C[NH-].O=C(O)CCO.[Pt+2]`: the T/C is, setting by setting: (T/C endpoint: median survival time, dose: 10.0 mg/kg/injection, schedule: Q04DX003 (ip), vehicle: saline) 139 % of control; (T/C endpoint: median survival time, dose: 10.0 mg/kg/injection, schedule: Q04DX003 (ip), vehicle: water) 132 % of control.
Take `CCCCCCCCCCCCNC(=O)C[n+]1cccc(C(=O)Nc2ccccc2)c1`: the survivor count is, setting by setting: (T/C endpoint: mean survival time, dose: 25.0 mg/kg/injection, schedule: Q01DX009 (ip), vehicle: saline with Tween-80) 0 of 6; under setting [2], 0 of 6; (T/C endpoint: mean survival time, dose: 200.0 mg/kg/injection, schedule: Q04DX003 (ip), vehicle: saline with Tween-80) 0 of 6; under setting [3], 0 of 6.
In the case of `Clc1nc(Cl)nc(-c2cccn2-c2ccccc2)n1`, the survivor count by setting is: (T/C endpoint: mean survival time, dose: 200.0 mg/kg/injection, schedule: Q01DX009 (ip), vehicle: saline with Tween-80) 0 of 6; under setting [4], 0 of 6.
